Results as given in publication PMC7467262.
Results are given in words; binding and its absence hold for the method and conditions named. Binding can be weak; no strength is given. Sequences can lack the tags named with a protein.

Assays:
[1] = target: T1, GST-XYR1 AD(767-860) (T. reesei) (UniProt G0RLE8); test: pull-down; purified GST or GST-XYR1 AD(767-860) pre-coupled on glutathione sepharose 4B beads, incubated with TrGAL11 KIX-His at least 2 h at room temperature; three washes with PBST (0.5% Triton X-100, pH 7.4); western blot with anti-His antibody; both purified
T1 sequence: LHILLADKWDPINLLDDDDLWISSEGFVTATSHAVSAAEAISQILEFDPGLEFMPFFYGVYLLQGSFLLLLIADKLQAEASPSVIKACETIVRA

[2] = target: T2, XYR1 activation domain (XYR1 AD, aa 767-860), Gal4 DNA-binding domain fusion from pGBKT7-XYR1 AD (T. reesei) (UniProt G0RLE8); test: two-hybrid; yeast Y2H Gold; XYR1 AD in pGBKT7, TrGAL11 full length or KIX in pGADT7; serial dilutions spotted on QDO (SD/-Ade/-His/-Leu/-Trp) with 75 ng/mL AbA, 30°C, 3 days
T2 sequence: T1 sequence

Row | binding [1] | binding [2] | Substance
1 | binds | – | TrGAL11 KIX-6His (amino acids 1-134) (from UniProt G0RJA8) (domain or fragment)
2 | – | binds | TrGAL11 full length, Gal4 activation domain fusion from pGADT7-TrGAL11 FL (T. reesei)
